Results published in PubChem BioAssay AID504810 (National Center for Advancing Translational Sciences (NCATS), 2011).
About 670 (0.2%) of roughly 330,000 compounds were called active. Inconclusive results, whose numbers are uncertain, are shown with a selection of clear calls.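 Rule for the calls: active = activity change below a set negative limit, meaning inhibition stronger than a set level (cut at about -70% in these data); inconclusive = activity change between two set negative limits; inactive = the rest.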

Amino acid sequences for entries named in this document (tags omitted).
UniProt P16473, whole entry, looked up: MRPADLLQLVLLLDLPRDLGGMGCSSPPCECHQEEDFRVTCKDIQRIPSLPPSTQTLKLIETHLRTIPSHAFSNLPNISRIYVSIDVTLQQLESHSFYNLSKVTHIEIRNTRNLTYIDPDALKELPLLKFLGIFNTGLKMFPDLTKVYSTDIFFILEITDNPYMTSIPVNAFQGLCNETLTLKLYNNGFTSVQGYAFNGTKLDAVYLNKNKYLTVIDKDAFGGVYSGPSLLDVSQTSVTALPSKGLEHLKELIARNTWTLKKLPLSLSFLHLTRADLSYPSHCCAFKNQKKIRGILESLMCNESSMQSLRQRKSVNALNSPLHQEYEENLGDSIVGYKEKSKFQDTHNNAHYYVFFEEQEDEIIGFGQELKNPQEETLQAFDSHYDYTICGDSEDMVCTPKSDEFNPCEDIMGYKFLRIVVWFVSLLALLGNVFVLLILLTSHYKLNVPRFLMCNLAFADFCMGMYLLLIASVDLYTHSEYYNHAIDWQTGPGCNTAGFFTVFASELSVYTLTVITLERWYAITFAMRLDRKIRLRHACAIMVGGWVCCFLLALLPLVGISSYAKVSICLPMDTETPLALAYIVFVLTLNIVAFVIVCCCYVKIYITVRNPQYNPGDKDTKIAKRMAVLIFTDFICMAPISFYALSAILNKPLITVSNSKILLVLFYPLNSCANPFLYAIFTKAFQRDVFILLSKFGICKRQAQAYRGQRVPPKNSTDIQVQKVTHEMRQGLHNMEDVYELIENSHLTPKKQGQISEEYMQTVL

Target: Thyrotropin receptor (Homo sapiens) (UniProt P16473)
Test: Antagonists of the Thyroid Stimulating Hormone Receptor: HTS campaign
Settings: TSHR-expressing cells, TSH-stimulated cAMP HTRF, 2 h; at 11.5 µM; stronger effect = lower value
In short: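 Cell-based HTRF cAMP assay; TSHR cells + compound, TSH EC80 (4nM final), 2 h, 37 deg C. Lysis with anti-cAMP cryptate and cAMP-d2, 30 min RT, read 665/620 nm.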
% is set by controls: 0 for no effect and ±100 for the full control effect.

| Structure (SMILES) | activity change, negative = inhibition |
| --- | --- |
| CC(=O)N1CCN(c2ccccc2NC(=O)c2cc3ccccc3o2)CC1 | inactive: 24.2% |
| COc1ccc(C(NC(=O)c2c(F)c(F)c(F)c(F)c2F)c2ccccc2)cc1 (stereo not drawn) | inconclusive: -57% |
| O=[N+]([O-])c1ccc(O)c(/C=N/NC(=S)Nc2ccc(Cl)cc2Cl)c1 | inconclusive: -53.1% |
| CC(OC(=O)C1CC(=O)N(Cc2ccccc2)C1)C(=O)Nc1cccc(C#N)c1 (stereo not drawn) | inconclusive: -57.8% |
| COc1ccc(NC(=O)Cc2c[nH]c3ccccc23)cc1S(=O)(=O)N1CCCCC1 | active: -74.8% |
| Cc1cc(N/N=C/c2cccc(F)c2)nc(NCc2ccccc2)n1 | inconclusive: -61.2% |
| COc1cccc(S(=O)(=O)NCc2ccc(C(=O)Nc3ccc(Cl)c(Cl)c3)cc2)c1 | inconclusive: -56.4% |
| O=C(Nc1ccc(Cl)c(Cl)c1)Nc1ccccc1NS(=O)(=O)c1cccs1 | inconclusive: -68.4% |
| COc1ccc(-c2nc(-c3ccc(NC(=O)c4ccncc4)cc3)no2)cc1OC | inconclusive: -62.9% |
| N#CC(C#N)=C1C=CC=CN1/C(=C\c1ccco1)C(=O)c1ccc(Br)cc1 | active: -91.4% |
| O=C(Nc1ncc([N+](=O)[O-])s1)c1cccc([N+](=O)[O-])c1 | inconclusive: -52.6% |
| CCn1nc(C)cc1C(=O)N1CCCC(C(=O)c2ccc(Oc3ccccc3)cc2)C1 (stereo not drawn) | inconclusive: -69.8% |
| CCNc1oc(COc2cccc(C)c2)nc1C#N | inconclusive: -50.6% |
| COC(=O)c1ccccc1NC(=S)NC(=O)COc1ccc(C(C)C)cc1 | inactive: 11.8% |
| CN(C)S(=O)(=O)Oc1cccc(C(=O)Nc2ccc(Cl)c(Cl)c2)c1 | inconclusive: -50.4% |
| COCC(=O)N(Cc1nc2sc(C)c(C)c2c(=O)[nH]1)C1CCCCC1 | inactive: 3.65% |
| O=C(/C=C/c1ccc2c(c1)OCO2)Nc1nc(-c2ccc(F)cc2)cs1 | inconclusive: -62.1% |
| Cc1ccc(NC(=O)Cn2cnc3ccccc32)cc1C | inactive: -12.4% |
| CCC(=O)N(CC)c1nc(-c2cc(OC)ccc2OC)cs1 | inconclusive: -50.8% |
| CCOc1ccc(C(C)=O)cc1N1C(=O)C2C3C=CC(O3)C2C1=O (stereo not drawn) | inactive: 7.55% |
| Cc1ccc(S(=O)(=O)Nc2c(Cl)c(Cl)c(O)c3ccccc23)cc1 | inconclusive: -60.4% |
| COCc1c(C(=O)Nc2cccc(S(=O)(=O)N3CCCCC3)c2)oc2ccccc12 | inconclusive: -50.4% |

| Structure (SMILES) | activity change, negative = inhibition |
| --- | --- |
| Cc1nc2ccccc2c2oc(C(=O)NCc3ccccn3)cc12 | inactive: -9.76% |
| CCOc1cc(/C=C/c2cc(C(=O)O)c3ccccc3n2)ccc1OC | inactive: 5.17% |
| COc1ccc(/C=C/c2ccc(=O)n(Cc3ccccc3)n2)cc1 | inactive: -6.96% |
| COc1cc(/C=C/C(=O)c2ccc([N+](=O)[O-])o2)ccc1O | inconclusive: -69.5% |
| O=C1C(Nc2ccc(O)cc2)=C/C(=N/S(=O)(=O)c2cccs2)c2ccccc21 | inconclusive: -54.1% |
| CC12CCC(=O)N1C(C(=O)NCCc1ccccc1)CS2 (stereo not drawn) | inactive: -0.0581% |
| N#CC(C#N)=C1C=CC=CN1/C(=C\c1ccco1)C(=O)c1ccccc1 | inconclusive: -55.7% |
| O=C(COc1cccc(Cl)c1)Nc1nc(-c2ccc(S(=O)(=O)N3CCOCC3)cc2)cs1 | inconclusive: -52.3% |
| Cc1onc(-c2ccccc2)c1NC(=O)N(Cc1ccccc1)C(C)C | active: -117% |
| Cc1cc(C)nc(SCc2nnc(SCC(=O)NCc3ccco3)n2-c2ccccc2)n1 | inactive: 21.5% |
| Cn1c(=O)c(C(=O)NNC(=O)c2cccc(Cl)c2)c(O)c2ccccc21 | inconclusive: -64.2% |
| Cc1ccc(Nc2nc3nonc3[nH]c2=O)cc1Cl | inconclusive: -55.6% |
| CC(Sc1nnc(N)s1)c1ccccc1Cl (stereo not drawn) | inconclusive: -55.1% |
| O=C(Nc1cccc(Cl)c1)c1cnc[nH]1 | inactive: 7.78% |
| Cc1ccc(Nc2cc(C)nc3ccc(C)cc23)cc1 | active: -95.7% |
| Cc1cc(NC(=O)CSc2nc(C(C)(C)C)nc3ccccc23)no1 | inactive: -18.6% |
| CC(C)Cn1c(N)c(C(=O)COC(=O)/C=C/c2ccccc2)c(=O)n(C)c1=O | inconclusive: -50.9% |
| Clc1ccccc1Cn1nnc2c(NCC3CC3)ncnc21 | inconclusive: -69.2% |
| CN(c1ccccc1)S(=O)(=O)c1ccc(NC(=O)c2nc(S(C)(=O)=O)ncc2Cl)cc1 | active: -94.9% |
| Cc1ccccc1CS(=O)(=O)c1nnc([C@H](Cc2ccccc2)NC(=O)OC(C)(C)C)o1 | inconclusive: -54.9% |
| CC(C)c1nnc(NC(=O)c2nc(S(=O)(=O)Cc3ccccc3)ncc2Cl)s1 | inconclusive: -66% |

Three entries from above, bar-delimited:
Structure (SMILES) | activity change, negative = inhibition
Cc1nc2ccccc2c2oc(C(=O)NCc3ccccn3)cc12 | inactive: -9.76%
CCOc1cc(/C=C/c2cc(C(=O)O)c3ccccc3n2)ccc1OC | inactive: 5.17%
COc1ccc(/C=C/c2ccc(=O)n(Cc3ccccc3)n2)cc1 | inactive: -6.96%
